The record followed here is PubChem BioAssay AID2685 (National Center for Advancing Translational Sciences (NCATS), 2010).

By AC50 is commonly meant the concentration at which the activity in the assay is half-maximal.

This assay in a line: qHTS Assay for Lipid Storage Modulators in Drosophila S3 Cells.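 As to cell number change: cells counted by Cell Tracker Red CMTPX staining in the red channel.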 The conditions noted are these: BODIPY lipid droplet fluorescence, 18-24 h; for cell number change: measured here: cell count max response, cells fed with added oleic acid. Summed up: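 Drosophila S3 cells got compounds at several concentrations plus oleic acid (400 uM solution). Laser-scanning cytometry with 488 nm excitation read lipid droplets at 500-530 nm and cells at 575-640 nm. Percent activity was relative to 20 uM Triacsin C.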

Where [1] appears, read: measured here: lipid fluorescence (Fed channel) AC50, cells fed with added oleic acid.
The mark [2] stands for this setting: measured here: cell number channel AC50, cells fed with added oleic acid.

Some of the results follow. The main result of the screen is listed elsewhere. These columns were measured beside it and carry no call. Compounds called inactive in the main read-out are mostly missing here. Potencies come from curve fits of mixed quality, noted in brackets.

As to `Cc1c(O[C@@H]2O[C@H](CO)[C@@H](O)[C@H](O)[C@H]2O)ccc2c1oc(=O)c1ccccc12`, the AC50 under setting [1] is 5.8 µM [rising, partial curve, poor fit].
Turning to `O=C1NC(CCc2ccccc2)C(=O)N1Cc1ccc(Br)cc1` (centres undefined), the cell number change was found to be 31.4%.
Take `COc1ccc2oc(C(=O)Nc3nc4ccccc4[nH]3)c(C)c2c1`: the cell number change is -5.91%.
Take `CCc1ccc(-c2cn(-c3nc(C)cc(C)n3)c(=N)o2)cc1`: the cell number change worked out at 10.3%. Also, the AC50 under setting [1] is 6.51 µM [rising, single point].
Take `CN1C(=O)C(C)(C)c2cc(S(=O)(=O)N3CCC(C(=O)NCc4ccccc4Cl)CC3)ccc21`: the cell number change was 7.49%. Moreover, the AC50 under setting [1] is 29.1 µM [falling, single point].
`COc1ccccc1C(CNC(=O)c1ccc(S(=O)(=O)N2CCCCC2)cc1)N(C)C` (centres undefined): the cell number change was 6.69%. Besides, the AC50 under setting [1] is 0.0291 µM [falling, full curve, poor fit].
With `Clc1ccc(CSc2nnc(-c3ccccn3)n2Cc2ccco2)c(Cl)c1`, the cell number change was -14%. Also, the AC50 under setting [1] was 29.1 µM [falling, single point].
For the molecule `Cc1ccc2nc(C)c(C(=O)N/N=C/c3cccs3)cc2c1`, the AC50 runs as follows: under setting [2], 0.116 µM [rising, full curve, poor fit]; under setting [1], 0.13 µM [rising, full curve, poor fit].
Turning to `Cc1cc(N2CCN(c3ccc(C(F)(F)F)cc3[N+](=O)[O-])CC2)c2ccccc2n1`, the cell number change is -25.5%.
For `Cn1cccc1C(C#N)c1cccc(F)c1C#N` (centres undefined), the cell number change is -1.43%. Moreover, the half-maximal activity concentration (AC50) under setting [2] is 0.231 µM [falling, full curve, poor fit].
For the molecule `C=C(C)CNC(=S)N/N=C/C1=CCC2CC1C2(C)C` (centres undefined), the cell number change was -15.4%. The AC50 under setting [1] is 25.9 µM [falling, single point].
Regarding `Cc1cccc(-n2cnc(C(=O)N/N=C/c3ccccc3)c2)n1`, the AC50 was 2.06 µM [rising, partial curve] under setting [2] and 2.31 µM [rising, partial curve] under setting [1].
Turning to `COc1ccccc1NS(=O)(=O)c1cc(NC(=O)c2cc3ccccc3oc2=O)ccc1C`, the cell number change is -0.754%. Further, under setting [1], the AC50 is 2.59 µM [rising, single point].
With `CCOc1ccc(S(=O)(=O)N2CCC(C(=O)NCCc3ccccc3)CC2)cc1`, the cell number change is -18.3%. In addition, under setting [1], the half-maximal activity concentration (AC50) was 29.1 µM [falling, single point].
For the molecule `O=C(COc1ccccc1Cl)Nc1cc(Cl)ccc1Oc1ccccc1`, the cell number change was determined as 27.8%.
Turning to `Cc1ccc2cc(C(c3nnnn3C3CCCC3)N(Cc3cccnc3)Cc3ccco3)c(=O)[nH]c2c1` (centres undefined), the cell number change is -13.7%. The AC50 under setting [1] is 3.26 µM [rising, partial curve].
For `CCOC(=O)c1sc2nc(CC(=O)OC)nc(N3CCN(c4ccccn4)CC3)c2c1C`, the cell number change was -18.3%. The AC50 under setting [1] is 13 µM [falling, partial curve, poor fit].
